Data source: PubChem BioAssay AID1508597 (Cure First, 2020)
This is an unselected part of the about 2,100 reagents, under one of the conditions tested. 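Calls flag viability under 80% in either arm, not effects specific to rucaparib; the reference for percent is not stated.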 A reagent listed more than once was tested more than once; the source does not tell the runs apart. Not stated in the record: the 100% reference.

Screen: 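Survival screen with siRNA in ovarian cancer cells derived from patients, with or without rucaparib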 (primary screen)
System: human ovarian carcinoma lines grown from tumours: OCI-P5x (papillary serous) and OCI-C5x (clear cell)
Reagents: siRNA pool against human genes, 1.25 pmol siRNA per well
Time to read-out: 72 h or 96 h, depending on the cell culture
Treatment: rucaparib 20 µM (about IC30) or vehicle, present until read-out
Rucaparib or vehicle: Rucaparib
Cell line: OCI-C5x (clear cell)
Measured: 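Luminescent ATP-based viability assay read 72 or 96 h after transfection, depending on culture, given as normalised percent viability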
Direction: viability, normalised: higher = more viable cells remaining
Rule for the call: 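a well counts as a hit if its normalised viability is under 80 percent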
Meaning of the calls: active = viability under 80%; inactive = viability 80% or more

Target gene	technical replicate	viability, normalised (%)	Call
PIK3C3 (phosphatidylinositol 3-kinase catalytic subunit type 3)	1	60.4	active
PIK3C3 (phosphatidylinositol 3-kinase catalytic subunit type 3)	2	60.9	active
PIK3C3 (phosphatidylinositol 3-kinase catalytic subunit type 3)	3	48.1	active
KDM3B (lysine demethylase 3B)	1	66.3	active
KDM3B (lysine demethylase 3B)	2	58.7	active
KDM3B (lysine demethylase 3B)	3	61.5	active
DHFR (dihydrofolate reductase)	1	47.2	active
DHFR (dihydrofolate reductase)	2	44.9	active
DHFR (dihydrofolate reductase)	3	51.8	active
CACNA1G (calcium voltage-gated channel subunit alpha1 G)	1	50.8	active
CACNA1G (calcium voltage-gated channel subunit alpha1 G)	2	53.8	active
CACNA1G (calcium voltage-gated channel subunit alpha1 G)	3	62.2	active
POLG (DNA polymerase gamma, catalytic subunit)	1	62.6	active
POLG (DNA polymerase gamma, catalytic subunit)	2	62.4	active
POLG (DNA polymerase gamma, catalytic subunit)	3	70.6	active
FASTK (Fas activated serine/threonine kinase)	1	49.4	active
FASTK (Fas activated serine/threonine kinase)	2	38.7	active
FASTK (Fas activated serine/threonine kinase)	3	46.9	active
PBRM1 (polybromo 1)	1	44.7	active
PBRM1 (polybromo 1)	2	32.2	active
PBRM1 (polybromo 1)	3	48	active
MAPK6 (mitogen-activated protein kinase 6)	1	63.3	active
MAPK6 (mitogen-activated protein kinase 6)	2	61.7	active
MAPK6 (mitogen-activated protein kinase 6)	3	47.9	active
NME1-NME2 (NME1-NME2 readthrough)	1	45.9	active
NME1-NME2 (NME1-NME2 readthrough)	2	46.4	active
NME1-NME2 (NME1-NME2 readthrough)	3	59.4	active
SUDS3 (SIN3A corepressor complex component SDS3)	1	24	active
SUDS3 (SIN3A corepressor complex component SDS3)	2	19.9	active
SUDS3 (SIN3A corepressor complex component SDS3)	3	26.4	active
PHKG1 (phosphorylase kinase catalytic subunit gamma 1)	1	52.6	active
PHKG1 (phosphorylase kinase catalytic subunit gamma 1)	2	42.1	active
PHKG1 (phosphorylase kinase catalytic subunit gamma 1)	3	51	active
RNF168 (ring finger protein 168)	1	51.8	active
RNF168 (ring finger protein 168)	1	51.2	active
RNF168 (ring finger protein 168)	2	38	active
RNF168 (ring finger protein 168)	2	51.4	active
RNF168 (ring finger protein 168)	3	36.8	active
RNF168 (ring finger protein 168)	3	37.5	active

No new results follow: 12 of the entries above.
Target gene	technical replicate	viability, normalised (%)	Call
MAPK6 (mitogen-activated protein kinase 6)	2	61.7	active
MAPK6 (mitogen-activated protein kinase 6)	3	47.9	active
NME1-NME2 (NME1-NME2 readthrough)	1	45.9	active
NME1-NME2 (NME1-NME2 readthrough)	2	46.4	active
NME1-NME2 (NME1-NME2 readthrough)	3	59.4	active
SUDS3 (SIN3A corepressor complex component SDS3)	1	24	active
SUDS3 (SIN3A corepressor complex component SDS3)	2	19.9	active
SUDS3 (SIN3A corepressor complex component SDS3)	3	26.4	active
PHKG1 (phosphorylase kinase catalytic subunit gamma 1)	1	52.6	active
PHKG1 (phosphorylase kinase catalytic subunit gamma 1)	2	42.1	active
PHKG1 (phosphorylase kinase catalytic subunit gamma 1)	3	51	active
RNF168 (ring finger protein 168)	1	51.8	active

More reagents follow:
Target gene	technical replicate	viability, normalised (%)	Call
TDRD3 (tudor domain containing 3)	1	55.1	active
TDRD3 (tudor domain containing 3)	2	40.3	active
TDRD3 (tudor domain containing 3)	3	35.5	active
MET (MET proto-oncogene, receptor tyrosine kinase)	1	50.4	active
MET (MET proto-oncogene, receptor tyrosine kinase)	2	47	active
MET (MET proto-oncogene, receptor tyrosine kinase)	3	46.2	active
DGKA (diacylglycerol kinase alpha)	1	42.6	active
DGKA (diacylglycerol kinase alpha)	2	42.3	active
DGKA (diacylglycerol kinase alpha)	3	37.7	active
SIRT3 (sirtuin 3)	1	47.4	active
SIRT3 (sirtuin 3)	2	29.5	active
SIRT3 (sirtuin 3)	3	33.2	active
SLC1A3	1	41.9	active
SLC1A3	2	45.4	active
SLC1A3	3	49.4	active
CDC7 (cell division cycle 7)	1	58.9	active
CDC7 (cell division cycle 7)	2	47.9	active
CDC7 (cell division cycle 7)	3	57.8	active
FXR1 (FMR1 autosomal homolog 1)	1	42.9	active
FXR1 (FMR1 autosomal homolog 1)	2	40.3	active
FXR1 (FMR1 autosomal homolog 1)	3	48.1	active
GUCY2C (guanylate cyclase 2C)	1	66	active
GUCY2C (guanylate cyclase 2C)	2	61.1	active
GUCY2C (guanylate cyclase 2C)	3	52.5	active
KCTD13 (potassium channel tetramerization domain containing 13)	1	67.2	active
KCTD13 (potassium channel tetramerization domain containing 13)	2	62.1	active
KCTD13 (potassium channel tetramerization domain containing 13)	3	64.6	active
AK7 (adenylate kinase 7)	1	65.6	active
AK7 (adenylate kinase 7)	2	74.2	active
AK7 (adenylate kinase 7)	3	50.9	active
SAP130 (Sin3A associated protein 130)	1	22.7	active
SAP130 (Sin3A associated protein 130)	2	23.6	active
SAP130 (Sin3A associated protein 130)	3	22.9	active
AICDA (activation induced cytidine deaminase)	1	73.2	active
AICDA (activation induced cytidine deaminase)	2	56.5	active
AICDA (activation induced cytidine deaminase)	3	59.6	active
